# Some entries share one result that the patent states for a list of compounds.
# Chains of the proteins cited; added tags and fusions are not shown. Residues count along the entry.
# UniProt Q92731, whole entry: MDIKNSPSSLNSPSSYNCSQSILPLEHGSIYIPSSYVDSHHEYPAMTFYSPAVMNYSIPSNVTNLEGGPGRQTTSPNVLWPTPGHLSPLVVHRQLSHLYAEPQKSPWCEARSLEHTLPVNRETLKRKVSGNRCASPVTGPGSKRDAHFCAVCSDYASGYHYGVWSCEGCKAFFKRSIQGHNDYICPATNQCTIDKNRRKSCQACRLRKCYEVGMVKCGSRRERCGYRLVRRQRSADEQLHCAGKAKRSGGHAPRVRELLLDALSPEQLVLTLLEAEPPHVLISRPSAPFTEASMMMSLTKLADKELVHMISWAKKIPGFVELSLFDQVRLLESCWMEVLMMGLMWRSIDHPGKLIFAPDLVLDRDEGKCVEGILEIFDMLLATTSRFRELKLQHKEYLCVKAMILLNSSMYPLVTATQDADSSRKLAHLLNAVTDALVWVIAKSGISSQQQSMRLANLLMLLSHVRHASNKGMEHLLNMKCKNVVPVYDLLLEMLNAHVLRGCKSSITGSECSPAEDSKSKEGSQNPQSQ
# UniProt Q92731, 255-530: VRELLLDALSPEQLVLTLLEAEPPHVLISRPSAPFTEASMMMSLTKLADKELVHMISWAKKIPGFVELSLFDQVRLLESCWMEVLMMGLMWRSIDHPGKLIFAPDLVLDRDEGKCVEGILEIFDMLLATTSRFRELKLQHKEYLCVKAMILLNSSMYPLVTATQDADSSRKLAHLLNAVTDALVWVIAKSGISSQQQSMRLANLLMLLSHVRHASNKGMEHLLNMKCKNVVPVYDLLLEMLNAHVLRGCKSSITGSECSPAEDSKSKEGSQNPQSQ
# What was measured:
# [1] = target: T1, human estrogen receptor beta (Homo sapiens, UniProt Q92731); test: Transactivation assay 2: HEK293 cells stably transfected with pERE2-ALP and human estrogen receptor beta; format: cell-based; details: transactivation assays 1 and 2
# T1 construct: expressed in transfected cells; host or cells: HEK293 (CRL-1573)
# [2] = target: T2, human ERβ (ERβ-LBD) (Homo sapiens, UniProt Q92731); test: Estrogen receptor binding assay (SPA, 3H-E2 displacement), ERβ-LBD
# T2 construct: human ERβ (ERβ-LBD, pET-N-AT #1, aa 255-530); made in house; host or cells: E. coli BL21(DE3) pBirA
SMILES,selectivity for the estrogen receptor β-subtype over the α-subtype in the transactivation assays [1],selectivity for the estrogen receptor β-subtype over the α-subtype in the binding assay [2]
"Cc1noc(C)c1-c1c(C=NO)c2ccccc2n1-c1ccc(O)cc1F [Example 27, 2-(3,5-Dimethyl-isoxazol-4-yl)-1-(2-fluoro-4-hydroxy-phenyl)-1H-indole-3-carbaldehyde oxime]",≥ 50,
"Cc1noc(C)c1-c1c(C=NO)c2ccccc2n1-c1ccc(O)c(F)c1 (single isomer, unassigned) [Example 29, 2-(3,5-Dimethyl-isoxazol-4-yl)-1-(3-fluoro-4-hydroxy-phenyl)-1H-indole-3-carbaldehyde oxime]",,≥ 50
"Cc1noc(C)c1-c1c(C=NO)c2ccccc2n1-c1cc(F)c(O)cc1F [Example 28, 1-(2,5-Difluoro-4-hydroxy-phenyl)-2-(3,5-dimethyl-isoxazol-4-yl)-1H-indole-3-carbaldehyde oxime]",,≥ 50
"Cc1noc(C)c1-c1c(C=NO)c2ccccc2n1-c1ccc(O)cc1 (single isomer, unassigned) [Example 2, 2-(3,5-Dimethyl-isoxazol-4-yl)-1-(4-hydroxy-phenyl)-1H-indole-3-carbaldehyde oxime]",≥ 50,≥ 50
"CC(=NO)c1c(-c2c(C)noc2C)n(-c2ccc(O)cc2)c2ccccc12 (single isomer, unassigned) [Example 34, 1-(2-(3,5-dimethylisoxazol-4-yl)-1-(4-hydroxyphenyl)-1H-indol-3-yl)ethanone oxime]",≥ 50,≥ 50
